# Experimental data: patent US20220275372A1 (priority 2019, published 2022)
# Assay: general procedure: Fmoc solid-phase peptide synthesis; Fmoc-β-Ala-OH preloaded Wang resin (0.19 or 0.46 mmol g^−1, Merck Millipore); PyBOP/NMM (Intavis)
# Settings: conjugation step, dried weight of lyophilised purified P-PMO
row,Substance,conjugation yield [%]
1,Ac-RBRRBRFQILYRBHBH-B,36
2,Ac-RBRRBRFQILYRBHBH-E,35
3,Ac-RBRRBRFQILYRBRBR-B,41
4,Ac-RBRRBRRFQILYRBHBH-Ab,17
5,Ac-RBRRBRRFQILYRBHBH-B,31
6,Ac-RBRRBRRFQILYRBHBH-E,25
7,Ac-RBRRBRRFQILYRBRBR-B,36
8,Succ-RBRRBRRFQILYRBHBH-NH2,37
